Values from PubChem BioAssay AID1259308 (NCATS, 2017)

Assay: 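Knock-downs that increase output of a recombinant reporter protein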 (primary screen)
Cells: human HEK293 embryonic kidney cells stably expressing firefly luciferase (HEK-CMV-Luc2-Hygro)
Knock-down reagent: single siRNA against human genes, 0.8 pmol siRNA per well
Duration: 72 h
Measured: 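Luciferase light (ONE-Glo) measured on one replicate plate set and viability (CellTiter-Glo) on the other, scaled to a negative control siRNA, with robust z-scores and luciferase per cell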
Direction: total luciferase, z-score and total luciferase, % of control: higher = more reporter protein produced
Hit rule: 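Active when the median/MAD z-score for overall luciferase is greater than 3; a gene was taken forward for validation with new siRNAs if at least two of its three siRNAs passed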
Calls: active = raised luciferase; inactive = no rise
The deposit covers about 59,000 reagents; this is a part drawn at random. Over the whole deposit, about 1,510 (2.6%) are marked active. 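Calls use total luciferase alone and ignore viability, so some active siRNAs may act by altering cell number.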 Reagents against one gene are numbered here. Not all columns of the deposit are shown.

CD2BP2 (CD2 cytoplasmic tail binding protein 2) #1 gave total luciferase, z-score -0.49; total luciferase, % of control 72.1; inactive.
CD2BP2 (CD2 cytoplasmic tail binding protein 2) #2 showed total luciferase, z-score -0.453; total luciferase, % of control 72.9; inactive.
After knock-down of CD2BP2 (CD2 cytoplasmic tail binding protein 2) #3, the screen gave total luciferase, z-score -0.0828; total luciferase, % of control 80.2; inactive.
Knock-down of IPPK (inositol-pentakisphosphate 2-kinase) #1 gave: total luciferase, z-score -0.392; total luciferase, % of control 74.1; inactive.
Depletion of IPPK (inositol-pentakisphosphate 2-kinase) #2 came out at: total luciferase, z-score -1.68; total luciferase, % of control 48.5; inactive.
IPPK (inositol-pentakisphosphate 2-kinase) #3 showed total luciferase, z-score 0.681; total luciferase, % of control 95.4; inactive.
With knock-down of DENND1C (DENN domain containing 1C) #1 the results were total luciferase, z-score -0.601; total luciferase, % of control 69.9; inactive.
Depletion of DENND1C (DENN domain containing 1C) #2 resulted in: total luciferase, z-score -0.923; total luciferase, % of control 63.5; inactive.
With knock-down of DENND1C (DENN domain containing 1C) #3, the screen gave total luciferase, z-score -0.349; total luciferase, % of control 75; inactive.

Reformatted: 2 of the entries above
{"gene":"DENND1C (DENN domain containing 1C)","reagent":2,"total luciferase, z-score":-0.923,"total luciferase, % of control":63.5,"Outcome":"inactive"}
{"gene":"DENND1C (DENN domain containing 1C)","reagent":3,"total luciferase, z-score":-0.349,"total luciferase, % of control":75,"Outcome":"inactive"}

More entries follow.
Knock-down of FARP1 (FERM, ARH/RhoGEF and pleckstrin domain protein 1) #1 resulted in: total luciferase, z-score 0.449; total luciferase, % of control 90.8; inactive.
FARP1 (FERM, ARH/RhoGEF and pleckstrin domain protein 1) #2 scored total luciferase, z-score -0.281; total luciferase, % of control 76.3; inactive.
With knock-down of FARP1 (FERM, ARH/RhoGEF and pleckstrin domain protein 1) #3, the screen gave total luciferase, z-score 0.182; total luciferase, % of control 85.5; inactive.
NRGN (neurogranin) #1 gave total luciferase, z-score 0.685; total luciferase, % of control 95.5; inactive.
Against NRGN (neurogranin) #2 the deposit lists total luciferase, z-score 0.325; total luciferase, % of control 88.3; inactive.
NRGN (neurogranin) #3 showed total luciferase, z-score -0.512; total luciferase, % of control 71.7; inactive.
With knock-down of TRNT1 (tRNA nucleotidyl transferase 1) #1, the record shows total luciferase, z-score 0.0885; total luciferase, % of control 83.6; inactive.
TRNT1 (tRNA nucleotidyl transferase 1) #2 scored total luciferase, z-score 0.665; total luciferase, % of control 95.1; inactive.
Silencing of TRNT1 (tRNA nucleotidyl transferase 1) #3 gave: total luciferase, z-score 1.97; total luciferase, % of control 121; inactive.
RNLS (renalase, FAD dependent amine oxidase) #1 showed total luciferase, z-score -1.24; total luciferase, % of control 57.2; inactive.
With knock-down of RNLS (renalase, FAD dependent amine oxidase) #2, the screen gave total luciferase, z-score -0.634; total luciferase, % of control 69.3; inactive.
Depletion of RNLS (renalase, FAD dependent amine oxidase) #3 came out at: total luciferase, z-score 0.648; total luciferase, % of control 94.8; inactive.
